The values that follow come from publication PMC10951424.

Sequences of proteins named here, by UniProt entry; tags and fusion partners are left off.
UniProt P84022: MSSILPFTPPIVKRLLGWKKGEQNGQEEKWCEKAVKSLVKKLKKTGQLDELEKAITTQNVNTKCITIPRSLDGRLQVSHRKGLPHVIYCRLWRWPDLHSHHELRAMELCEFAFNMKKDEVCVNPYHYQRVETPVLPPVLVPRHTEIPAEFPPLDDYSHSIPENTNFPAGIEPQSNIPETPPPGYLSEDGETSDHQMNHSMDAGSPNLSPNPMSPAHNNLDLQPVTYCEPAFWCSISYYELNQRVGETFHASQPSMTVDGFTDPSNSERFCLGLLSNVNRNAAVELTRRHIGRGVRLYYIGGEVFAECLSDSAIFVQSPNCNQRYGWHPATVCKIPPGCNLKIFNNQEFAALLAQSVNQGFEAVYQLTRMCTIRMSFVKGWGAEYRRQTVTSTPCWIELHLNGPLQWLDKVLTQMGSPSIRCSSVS
UniProt O14744: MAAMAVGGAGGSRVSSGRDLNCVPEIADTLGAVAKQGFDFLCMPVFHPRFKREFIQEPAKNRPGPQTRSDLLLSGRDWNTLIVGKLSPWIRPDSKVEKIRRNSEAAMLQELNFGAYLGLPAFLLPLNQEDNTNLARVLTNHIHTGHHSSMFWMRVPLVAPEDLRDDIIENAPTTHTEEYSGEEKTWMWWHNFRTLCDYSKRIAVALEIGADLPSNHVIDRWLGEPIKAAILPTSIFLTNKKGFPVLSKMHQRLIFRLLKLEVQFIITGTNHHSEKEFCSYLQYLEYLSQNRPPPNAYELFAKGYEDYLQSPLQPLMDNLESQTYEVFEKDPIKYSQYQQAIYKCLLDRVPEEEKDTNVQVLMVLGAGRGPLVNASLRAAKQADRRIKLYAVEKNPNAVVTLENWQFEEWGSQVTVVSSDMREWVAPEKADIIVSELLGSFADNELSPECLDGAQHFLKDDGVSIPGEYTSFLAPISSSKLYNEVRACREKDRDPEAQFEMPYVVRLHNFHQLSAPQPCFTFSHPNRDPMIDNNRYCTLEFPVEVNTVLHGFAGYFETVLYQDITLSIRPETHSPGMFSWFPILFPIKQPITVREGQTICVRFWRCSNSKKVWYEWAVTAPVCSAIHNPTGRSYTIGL

Results are given in words; binding and its absence hold for the method and conditions named. In cells and extracts the contact can be indirect. Some binding calls cover weakened binding; strength is not graded here.

The target in this test is HA-tagged Smad3 (human) (UniProt P84022). Put plainly: co-IP; nuclear extracts of HEK293T cells transfected with Flag-tagged PRMT5 and HA-tagged SMAD3; immunoprecipitation with anti-Flag or anti-HA beads; 4 °C, 2 h; western blot.

As for “FLAG-tagged PRMT5 (from UniProt O14744 1-637) (enzyme)”, the binding entry is on record as “binds”.
